Results are given in words; binding and its absence hold for the method and conditions named. Binding calls can cover weak binding; strength is not graded here. Sequences can lack the tags named with a protein.
Molecular target: GST-MUL1 (human) (UniProt Q969V5)
Experiment: pull-down; GST-MUL1 incubated with WT or H135Q His-tagged NME3 in the presence of ATP for 30 min, then glutathione beads pulldown; Western blot with MUL1 and His antibodies; both purified

Chains of the proteins cited; added tags and fusions are not shown. Lines headed by an entry give the natural chain unless they say otherwise; changes in a name come on top.
UniProt Q969V5: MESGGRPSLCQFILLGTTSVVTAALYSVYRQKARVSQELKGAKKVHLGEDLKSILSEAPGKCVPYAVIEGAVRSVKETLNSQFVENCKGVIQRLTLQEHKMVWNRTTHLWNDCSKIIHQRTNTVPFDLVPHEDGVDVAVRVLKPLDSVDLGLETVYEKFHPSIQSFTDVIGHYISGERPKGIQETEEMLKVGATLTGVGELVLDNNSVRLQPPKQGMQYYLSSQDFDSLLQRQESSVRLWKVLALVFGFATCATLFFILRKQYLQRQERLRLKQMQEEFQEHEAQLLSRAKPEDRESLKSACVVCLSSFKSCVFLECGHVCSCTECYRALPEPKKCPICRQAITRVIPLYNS

B1: His-tagged NME3 WT (protein, UniProt Q13232 1-169)
chain: MICLVLTIFANLFPAACTGAHERTFLAVKPDGVQRRLVGEIVRRFERKGFKLVALKLVQASEELLREHYAELRERPFYGRLVKYMASGPVVAMVWQGLDVVRTSRALIGATNPADAPPGTIRGDFCIEVGKNLIHGSDSVESARREIALWFRADELLCWEDSAGHWLYE
B1 was tested, and the binding was “binds”.

From PMC10938004
